From patent publication US20250388575A1, “HETEROBIFUNCTIONAL COMPOUNDS AND METHODS OF TREATING DISEASE” (Halda Therapeutics OpCo, Inc., priority 2022, published 2025)
The structures given here were assigned with low confidence; some may be wrong.

Chains of the proteins cited; added tags and fusions are not shown. Residues count along the entry.
UniProt P06401, 679-913 limits assumed: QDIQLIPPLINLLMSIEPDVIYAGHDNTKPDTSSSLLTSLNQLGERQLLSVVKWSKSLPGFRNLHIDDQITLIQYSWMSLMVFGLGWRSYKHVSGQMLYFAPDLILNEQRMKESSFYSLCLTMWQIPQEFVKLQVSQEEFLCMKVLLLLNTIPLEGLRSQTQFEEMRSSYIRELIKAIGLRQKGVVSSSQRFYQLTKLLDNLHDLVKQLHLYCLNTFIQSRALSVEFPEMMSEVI

Assays:
[1] = system: T-Rex 293 cell line SC3 cells having increased expression of androgen receptor protein; assay: Cellular growth inhibition, T-Rex 293 SC3 cells with increased androgen receptor expression (doxycycline), CellTiter-Glo; settings: T-Rex 293 SC3 cells with increased androgen receptor expression (exposed to 10 ng/mL doxycycline), 72 hours
Protocol: (§1) The following types of cells were prepared for this experiment: (i) a T-Rex 293 cell line having increased expression of androgen receptor protein due to exposure to doxycycline and (ii) a T-Rex 293 cell line lacking increased expression of androgen receptor protein. Ability of the test compounds to inhibit proliferation of the foregoing cell types was evaluated according to the procedures set forth below.
(§2) The doxycycline-inducible androgen receptor protein expressing cell line was established using the following protocol: T-Rex 293 cells were purchased from Invitrogen (Cat #R71007) and transfected using Lipofectamine 2000 with the wild-type androgen receptor protein sequence cloned into the pcDNA4/TO vector. Transfected cells were selected using 400 μg/mL Zeocin (Invitrogen Cat #R25001). Following selection, single clones were raised and maintained in Dulbecco's Modified Eagle Medium (DMEM) supplemented with 10% w/w Tetracycline-free fetal bovine serum (FBS) and 250 μg/mL Zeocin. Clones were analyzed for expression of androgen receptor protein in the presence and absence of 10 ng/ml doxycycline (Sigma Cat #D9891), and a single doxycycline-inducible clone (hereinafter “SC3”) was selected for use in downstream assays.
(§3) The SC3 cells were seeded on poly-D-lysine coated, black clear-bottom 384-well plates at 2500/well, in 25 μL Phenol Red Free Dulbecco's Modified Eagle Medium (DMEM) supplemented with 10% w/w charcoal-dextran treated fetal bovine serum (FBS) and 1% w/w pen-strep, with or without 10 ng/mL doxycycline. Pen-Strep is a commercially available mixture of penicillin G and streptomycin, which is used in mammalian cell culture media to prevent bacterial contamination. […]
(§4) At the end of the treatment duration, cell viability was quantified with CellTiter-Glo 2.0 reagent (Promega Cat #G9243). […] Following incubation, the plates were spun at 3000×g for 30 seconds, then sealed with an optical adhesive cover, and luminescence readings were measured with an EnVision Plate Reader.
(§5) Data was normalized using zero luminescence for baseline. […]

[2] = system: T-Rex 293 cell line SC3 cells lacking increased expression of androgen receptor protein; assay: Cellular growth inhibition, T-Rex 293 SC3 cells lacking increased androgen receptor expression (no doxycycline), CellTiter-Glo; settings: T-Rex 293 SC3 cells lacking increased androgen receptor expression (not exposed to doxycycline), 72 hours
Protocol: as §1, §2, §3, §4, §5

[3] = system: VCaP cells; assay: Cellular growth inhibition assay for VCaP cells, CellTiter-Glo; settings: 72 hours
Protocol: VCaP cells were purchased from American Type Cell Culture (ATCC Cat #CRL2876) and then seeded on poly-D-lysine coated, black clear-bottom 384-well plates at 5000/well in 25 μL Dulbecco's Modified Eagle Medium (DMEM) supplemented with 10% w/w Fetal bovine serum (FBS) and 1% w/w Pen-Strep. Pen-Strep is a commercially available mixture of penicillin G and streptomycin, which is used in mammalian cell culture media to prevent bacterial contamination. Dulbecco's Modified Eagle Medium (DMEM) supplemented with 10% w/w fetal bovine serum (FBS) and 1% w/w Pen-Strep is herein referred to as Treatment Medium. Following seeding of cells in the plates, the plates were spun at 300×g for 30 seconds, then equilibrated to room temperature for 30 minutes, and then deposited in a humidified tissue culture incubator maintained at 37° C. with 5% CO2.
At 24 hours after seeding of the cells, dilutions of test compound were prepared in DMSO and dissolved in Treatment Medium, to achieve a final DMSO concentration of 0.5% w/w, thereby providing the Test Compound Solution. A 25 μL aliquot of the Test Compound Solution was added to cells in the well plates. An equal volume of a solution containing DMSO and Treatment Medium was used as a negative control. Following treatment of cells with Test Compound Solution or said equal volume of a solution containing DMSO and Treatment Medium, the plates were spun at 300×g for 30 seconds, and then left in an incubator for 72 hours.
as §4, with “#G9243). For this purpose, plates were equilibrated to room temperature for 30 minutes, and then 25 μL of CellTiter-Glo 2.0 reagent was added to cells in the plate wells.” for “#G9243).”
as §5

[4] = target: progesterone receptor ligand binding domain (LBD) (Homo sapiens (Human), UniProt P06401); assay: FP assay for binding affinity to progesterone receptor (PolarScreen Progesterone Receptor Competitor Assay); settings: GST-tagged PR LBD, Fluormone tracer, fluorescence polarization, 2 hours at room temperature
Protocol: Compounds were tested using the PolarScreen™ Progesterone Receptor Competitor Assay Kit (Life Technologies Cat #A15905 or a15906), as per the manufacturer's instructions. Briefly, GST-tagged PR LBD, Fluormone tracer, and compound were mixed and incubated for 2 hours at room temperature in the dark. Following incubation, the plates were spun at 3000×g for 30 seconds, then sealed with an optical adhesive cover, and fluorescence polarization was measured using appropriate excitation and emission filters with an EnVision Plate Reader (Perkin Elmer). Compound concentration vs. mP value were plotted in Prism (GraphPad). A four-parameter non-linear regression curve fit was applied to dose-response data to determine the half-maximal inhibitory concentration (IC50) for each test compound.

[5] = system: T47D cells; assay: Cellular growth inhibition assay for T47D cells, CellTiter-Glo; settings: 72 hours treatment, CellTiter-Glo 2.0
Protocol: T47D cells were purchased from American Type Cell Culture (ATCC Cat #HTB-133) and then seeded on poly-D-lysine coated, black clear-bottom 384-well plates at 3000/well in 25 μL Dulbecco's Modified Eagle Medium (DMEM) supplemented with 10% w/w Fetal bovine serum (FBS), 0.2 units/mL recombinant human insulin (Gibco Cat #12585014), and 1% w/w Pen-Strep. Pen-Strep is a commercially available mixture of penicillin G and streptomycin, which is used in mammalian cell culture media to prevent bacterial contamination. Dulbecco's Modified Eagle Medium (DMEM) supplemented with 10% w/w fetal bovine serum (FBS), 0.2 units/mL recombinant human insulin, and 1% w/w Pen-Strep is herein referred to as Treatment Medium. Following seeding of cells in the plates, the plates were spun at 300×g for 30 seconds, then equilibrated to room temperature for 30 minutes, and then deposited in a humidified tissue culture incubator maintained at 37° C. with 5% CO2. […]
as §4, with “Reader (Perkin Elmer).” for “Reader.”
as §5

GI50 [3] [nM]	IC50 [4] [nM]	GI50 [5] [nM]	SMILES	GI50 [1] [nM]	GI50 [2] [nM]
> 3000	< 50		Cn1cc(-c2cc(NC(=O)N3CCN(c4ccc(C(=O)N[C@H]5CC[C@H](Oc6ccc(C#N)c(Cl)c6)CC5)nn4)CC3)ccc2Oc2ccc(F)cc2F)c2cc[nH]c2c1=O	> 3000	< 500
> 3000	< 50	500 to 1500	Cn1cc(-c2cc(NC(=O)CCCCN3CCN(c4ccc(C(=O)N[C@H]5CC[C@H](Oc6ccc(C#N)c(Cl)c6)CC5)nn4)CC3)ccc2Oc2ccc(F)cc2F)c2cc[nH]c2c1=O	< 500	> 3000
< 500			Cn1cc(-c2cc(C(C)(C)O)ccc2O[C@H]2C(C)(C)[C@H](N(C)CC3CCN(c4ccc(C(=O)N[C@H]5CC[C@H](Oc6ccc(C#N)c(Cl)c6)CC5)nn4)CC3)C2(C)C)c2cc[nH]c2c1=O	< 500	> 3000
